Results are given in words; binding and its absence hold for the method and conditions named. Binding seen in cells or lysates may run through a third protein.
Experiments:
[1] = target: TrkB receptor (endogenous, mouse brain) (mouse (endogenous in E15 and adult brain)) (UniProt P15209); assay: co-IP; endogenous proteins in E15 and adult mouse brain lysates (1% Triton X-100 lysis buffer); antibody overnight at 4°C in IP buffer (10 mM Tris pH 7, 140 mM NaCl, 1.5 mM EDTA), Protein G-sepharose 2 h at 4°C, Western blot
[2] = target: TrkA-HA (UniProt P04629); assay: co-IP; lysates of transiently co-transfected HEK293 cells; anti-FLAG, anti-myc, anti-HA, anti-GFP, anti-TI-VAMP or HPC-1 antibodies, Protein G-sepharose 2 h at 4°C, Western blot
[3] = target: TrkB-GFP (UniProt Q63604); assay: as above
[4] = target: TrkC-myc (UniProt Q16288); assay: as above
[5] = target: SNAP25 (endogenous, mouse brain) (mouse (endogenous in E15 and adult brain)) (UniProt P60879); assay: co-IP; endogenous proteins in E15 and adult mouse brain lysates (1% Triton X-100 lysis buffer); antibody overnight at 4°C in IP buffer (10 mM Tris pH 7, 140 mM NaCl, 1.5 mM EDTA), Protein G-sepharose 2 h at 4°C, Western blot
[6] = target: VAMP2 (endogenous, mouse brain) (mouse (endogenous in E15 and adult brain)) (UniProt P63044); assay: as above

By UniProt entry, the sequences of proteins in these tests, tags left out. Residues count along the entry.
UniProt P15209, residues 32-821: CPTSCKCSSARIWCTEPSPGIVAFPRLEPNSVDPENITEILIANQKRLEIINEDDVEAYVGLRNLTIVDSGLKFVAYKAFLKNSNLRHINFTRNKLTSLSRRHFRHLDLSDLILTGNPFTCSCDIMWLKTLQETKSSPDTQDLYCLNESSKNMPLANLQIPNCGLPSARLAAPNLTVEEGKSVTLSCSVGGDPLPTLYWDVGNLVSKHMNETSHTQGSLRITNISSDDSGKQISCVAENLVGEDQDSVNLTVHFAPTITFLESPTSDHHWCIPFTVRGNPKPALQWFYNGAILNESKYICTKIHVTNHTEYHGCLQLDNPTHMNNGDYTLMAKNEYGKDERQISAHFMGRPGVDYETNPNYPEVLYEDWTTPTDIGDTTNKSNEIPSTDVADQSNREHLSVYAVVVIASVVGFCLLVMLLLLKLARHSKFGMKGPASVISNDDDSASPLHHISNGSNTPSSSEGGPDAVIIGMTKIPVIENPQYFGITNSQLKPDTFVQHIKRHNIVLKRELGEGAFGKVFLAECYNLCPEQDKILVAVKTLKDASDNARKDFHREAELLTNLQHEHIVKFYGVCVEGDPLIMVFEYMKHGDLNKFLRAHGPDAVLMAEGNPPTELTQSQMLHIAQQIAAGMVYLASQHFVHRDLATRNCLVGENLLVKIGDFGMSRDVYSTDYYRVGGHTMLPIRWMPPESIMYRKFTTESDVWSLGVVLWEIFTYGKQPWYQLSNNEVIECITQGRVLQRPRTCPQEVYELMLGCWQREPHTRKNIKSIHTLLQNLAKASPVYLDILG
UniProt P04629, residues 33-796: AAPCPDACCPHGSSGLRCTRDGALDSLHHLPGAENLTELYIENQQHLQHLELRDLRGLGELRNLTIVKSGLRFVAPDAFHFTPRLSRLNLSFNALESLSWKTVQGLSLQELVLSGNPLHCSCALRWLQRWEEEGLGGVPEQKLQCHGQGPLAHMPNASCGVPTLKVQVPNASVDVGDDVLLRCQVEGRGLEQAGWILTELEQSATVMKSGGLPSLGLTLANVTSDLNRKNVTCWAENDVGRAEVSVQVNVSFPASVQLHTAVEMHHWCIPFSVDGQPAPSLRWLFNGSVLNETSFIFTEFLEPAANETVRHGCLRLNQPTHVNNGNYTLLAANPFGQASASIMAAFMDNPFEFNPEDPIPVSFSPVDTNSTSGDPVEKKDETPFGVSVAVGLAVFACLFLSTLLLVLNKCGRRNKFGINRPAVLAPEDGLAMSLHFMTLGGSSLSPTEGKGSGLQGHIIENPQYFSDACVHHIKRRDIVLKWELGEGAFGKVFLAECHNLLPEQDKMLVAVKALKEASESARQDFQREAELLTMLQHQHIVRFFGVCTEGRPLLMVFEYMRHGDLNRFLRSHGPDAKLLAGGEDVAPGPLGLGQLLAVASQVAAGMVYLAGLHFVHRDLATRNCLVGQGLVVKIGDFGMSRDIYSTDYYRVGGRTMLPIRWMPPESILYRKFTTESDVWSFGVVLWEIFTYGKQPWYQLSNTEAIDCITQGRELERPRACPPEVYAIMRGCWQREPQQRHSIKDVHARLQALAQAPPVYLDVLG
UniProt Q63604, residues 32-821: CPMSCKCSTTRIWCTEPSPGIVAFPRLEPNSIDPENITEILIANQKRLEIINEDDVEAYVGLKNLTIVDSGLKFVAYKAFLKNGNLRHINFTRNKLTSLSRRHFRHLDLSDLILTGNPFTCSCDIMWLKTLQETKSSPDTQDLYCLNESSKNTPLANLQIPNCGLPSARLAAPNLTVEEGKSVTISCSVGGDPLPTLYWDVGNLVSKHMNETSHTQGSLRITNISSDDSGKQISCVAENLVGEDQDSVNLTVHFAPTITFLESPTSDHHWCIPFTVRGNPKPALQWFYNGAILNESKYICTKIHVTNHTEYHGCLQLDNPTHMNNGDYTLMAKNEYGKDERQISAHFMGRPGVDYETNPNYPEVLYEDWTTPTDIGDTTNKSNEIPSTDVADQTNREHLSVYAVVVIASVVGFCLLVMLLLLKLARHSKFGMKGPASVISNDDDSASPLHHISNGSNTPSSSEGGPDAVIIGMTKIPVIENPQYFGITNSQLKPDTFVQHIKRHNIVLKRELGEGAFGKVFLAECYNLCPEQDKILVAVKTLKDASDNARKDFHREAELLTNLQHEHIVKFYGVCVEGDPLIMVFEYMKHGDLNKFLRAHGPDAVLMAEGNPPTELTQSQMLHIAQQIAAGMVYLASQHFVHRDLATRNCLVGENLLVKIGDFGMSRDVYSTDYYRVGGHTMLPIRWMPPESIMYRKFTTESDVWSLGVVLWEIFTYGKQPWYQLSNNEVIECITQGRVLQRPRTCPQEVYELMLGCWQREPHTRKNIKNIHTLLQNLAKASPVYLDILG
UniProt Q16288, residues 32-839: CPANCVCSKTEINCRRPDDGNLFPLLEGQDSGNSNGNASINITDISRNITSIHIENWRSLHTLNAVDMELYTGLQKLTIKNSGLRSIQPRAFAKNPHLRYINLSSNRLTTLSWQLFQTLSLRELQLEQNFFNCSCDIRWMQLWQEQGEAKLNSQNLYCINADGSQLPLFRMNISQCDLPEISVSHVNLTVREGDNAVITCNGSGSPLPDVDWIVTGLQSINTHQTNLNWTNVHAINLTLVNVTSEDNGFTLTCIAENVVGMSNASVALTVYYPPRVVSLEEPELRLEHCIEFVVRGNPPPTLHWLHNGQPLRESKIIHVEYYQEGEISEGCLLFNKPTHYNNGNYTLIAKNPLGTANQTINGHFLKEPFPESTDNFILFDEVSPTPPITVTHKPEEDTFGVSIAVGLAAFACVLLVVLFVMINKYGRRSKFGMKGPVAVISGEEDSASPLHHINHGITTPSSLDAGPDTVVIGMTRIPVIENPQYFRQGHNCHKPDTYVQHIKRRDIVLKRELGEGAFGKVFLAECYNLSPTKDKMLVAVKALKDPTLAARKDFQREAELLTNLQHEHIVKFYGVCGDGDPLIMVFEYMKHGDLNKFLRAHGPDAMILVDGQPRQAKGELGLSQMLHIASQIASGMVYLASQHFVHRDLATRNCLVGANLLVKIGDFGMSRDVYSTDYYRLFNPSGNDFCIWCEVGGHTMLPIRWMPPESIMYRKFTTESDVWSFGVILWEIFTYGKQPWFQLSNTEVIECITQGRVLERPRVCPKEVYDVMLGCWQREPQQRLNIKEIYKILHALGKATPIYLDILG
UniProt P60879: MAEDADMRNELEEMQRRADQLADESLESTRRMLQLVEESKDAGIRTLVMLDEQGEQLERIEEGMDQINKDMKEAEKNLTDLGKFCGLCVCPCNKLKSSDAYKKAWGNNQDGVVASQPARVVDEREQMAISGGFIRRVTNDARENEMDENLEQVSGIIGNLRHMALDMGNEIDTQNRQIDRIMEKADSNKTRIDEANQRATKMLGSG
UniProt P63044: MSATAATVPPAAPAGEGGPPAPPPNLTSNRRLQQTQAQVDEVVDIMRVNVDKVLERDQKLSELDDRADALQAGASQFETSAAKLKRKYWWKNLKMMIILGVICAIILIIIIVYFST

In the case of “VAMP2 (endogenous, mouse brain) (from UniProt P63044 1-116)”, the binding [1] is reported as “no binding”.
VAMP2-FLAG (from UniProt P63044 1-116) was tested, and the binding [2] was “no binding”, the binding [3] was “no binding” and the binding [4] was “no binding”.
For “TrkB receptor (endogenous, mouse brain) (from UniProt P15209 32-821)”, the binding [5] was “no binding” and the binding [6] was “no binding”.
With SNAP25-FLAG (from UniProt P60879 1-206) the binding [2] was “no binding”, the binding [3] was “no binding” and the binding [4] was “no binding”.
In the case of “SNAP25 (endogenous, mouse brain) (from UniProt P60879 1-206)”, the binding [1] is reported as “no binding”.
